Experimental data: PubChem BioAssay AID1224828 (NIAID, 2016)
Aim: 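Find genes required for NF-kappaB p65 moving into the nucleus after LPS in mouse macrophages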 (primary screen). Cell system: mouse RAW264.7 G9 macrophage reporter cells (GFP-p65, Tnf promoter-mCherry). Reagent: siRNA pool against mouse genes, 100 nM. Time to read-out: 2 days siRNA transfection, then 40 min LPS before fixation. Conditions: LPS (Salmonella minnesota R595) at 10 ng/ml. Measurement: 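Imaged p65 nuclear translocation ratio, normalised to the plate median, converted to robust z-scores and averaged across two replicates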. Direction: p65 translocation robust z-score: higher = more nuclear NF-kappaB p65 after LPS than the plate median; nuclear/cytoplasmic p65 ratio: higher = more nuclear NF-kappaB p65. Call rule: 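Called active when z exceeds 3.3 or falls under -1.56 (median of Tlr4 controls), giving activity score of at least 50; no calls for control wells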. Meaning of the calls: active = hit (p65 shift raised or lowered); inactive = no clear change.
The deposit covers about 17,000 reagents; shown is an unselected part. 762 of them (4.5%) were called active. 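Active calls include both raised and lowered p65 entry, mostly lowered; wells with fewer than 50 cells lack a z-score.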 Raw values are not corrected between plates. Reagents against one gene are numbered here. A reagent listed more than once was tested more than once; the source does not tell the runs apart. Reagent sequences are not shown.

gene | reagent no. | p65 translocation robust z-score | nuclear/cytoplasmic p65 ratio, rep 1 | nuclear/cytoplasmic p65 ratio, rep 2 | low cell count flag | outcome
Hes3 | 1 | 0.19 | 1.71 | 1.54 | enough cells to score | inactive
H2bc8 | 1 | – | 0 | 1.59 | fewer than 50 cells per well; well left out of scoring | inactive
Kif11 | 1 | – | 1.38 | 1.26 | fewer than 50 cells per well; well left out of scoring | inactive
Atg12 | 1 | -1.36 | 1.42 | 1.41 | enough cells to score | inactive
Apbb1 | 1 | 0.14 | 1.69 | 1.59 | enough cells to score | inactive
Cimap1c | 1 | 2.52 | 1.8 | 1.85 | enough cells to score | inactive
Aldh1a2 | 1 | -0.3 | 1.53 | 1.62 | enough cells to score | inactive
Rnasel | 1 | -0.23 | 1.67 | 1.33 | enough cells to score | inactive
Rai2 | 1 | 0.33 | 1.57 | 1.55 | enough cells to score | inactive
Dhx34 | 1 | -0.01 | 1.53 | 1.58 | enough cells to score | inactive
Clec3b | 1 | -0.6 | 1.53 | 1.34 | enough cells to score | inactive
Il17b | 1 | 1.82 | 1.68 | 1.65 | enough cells to score | inactive
Tnp2 | 1 | – | 1.23 | 1.5 | fewer than 50 cells per well; well left out of scoring | inactive
Pcdha6 | 1 | 1.61 | 1.66 | 1.41 | enough cells to score | inactive
Trim29 | 1 | -0.04 | 1.36 | 1.11 | enough cells to score | inactive
Ostc | 1 | – | 1.18 | 1.16 | fewer than 50 cells per well; well left out of scoring | inactive
Cit | 1 | 0.06 | 1.69 | 1.4 | enough cells to score | inactive
Cit | 2 | – | 1.28 | 1.32 | fewer than 50 cells per well; well left out of scoring | inactive
Slc5a9 | 1 | 0.45 | 1.65 | 1.78 | enough cells to score | inactive
Gab1 | 1 | -2.05 | 1.11 | 1.16 | enough cells to score | active
Tm7sf3 | 1 | 0.13 | 1.43 | 1.61 | enough cells to score | inactive
Tenm1 | 1 | 0 | 1.75 | 1.5 | enough cells to score | inactive
Hapln2 | 1 | 0.41 | 1.76 | 1.55 | enough cells to score | inactive
Prh1 | 1 | 0.38 | 1.48 | 1.22 | enough cells to score | inactive
Tgds | 1 | – | 1.55 | 1.01 | fewer than 50 cells per well; well left out of scoring | inactive
Slc16a10 | 1 | -1.48 | 1.16 | 1.13 | enough cells to score | inactive
Fbn2 | 1 | – | 1.46 | 1.5 | fewer than 50 cells per well; well left out of scoring | inactive
Stk40 | 1 | 1.46 | 2.01 | 1.5 | enough cells to score | inactive
Stk40 | 1 | – | 1.26 | 1.19 | fewer than 50 cells per well; well left out of scoring | inactive
Ccl1 | 1 | -0.55 | 1.48 | 1.73 | enough cells to score | inactive
Pcdh11x | 1 | 0.32 | 1.56 | 1.39 | enough cells to score | inactive
Garnl3 | 1 | -1.66 | 1.34 | 1.24 | enough cells to score | active
Uchl3 | 1 | -0.78 | 1.37 | 1.43 | enough cells to score | inactive
Ppil4 | 1 | -0.36 | 1.33 | 1.15 | enough cells to score | inactive
Aspa | 1 | 1.05 | 1.83 | 1.71 | enough cells to score | inactive
Agl | 1 | 0.36 | 1.68 | 1.66 | enough cells to score | inactive
Or52n4 | 1 | 0.16 | 1.54 | 1.22 | enough cells to score | inactive
Crhbp | 1 | 0.75 | 1.54 | 1.51 | enough cells to score | inactive
Armc1 | 1 | 0.17 | 1.69 | 1.6 | enough cells to score | inactive
Prss34 | 1 | 0.41 | 1.4 | 1.29 | enough cells to score | inactive
Dpy19l1 | 1 | 0.35 | 1.49 | 1.59 | enough cells to score | inactive
C1d | 1 | 0.48 | 1.46 | 1.63 | enough cells to score | inactive
Or9a2 | 1 | – | 1.6 | 1.07 | fewer than 50 cells per well; well left out of scoring | inactive
Tspoap1 | 1 | 0.98 | 1.82 | 1.71 | enough cells to score | inactive
Irx6 | 1 | -1.33 | 1.34 | 1.27 | enough cells to score | inactive
Rs1 | 1 | -0.9 | 1.37 | 1.41 | enough cells to score | inactive
Exoc5 | 1 | 0.71 | 1.7 | 1.75 | enough cells to score | inactive
Nat3 | 1 | -0.08 | 1.76 | 1.59 | enough cells to score | inactive
Krt76 | 1 | -0.12 | 1.64 | 1.56 | enough cells to score | inactive
Ubr2 | 1 | 0.71 | 1.61 | 1.44 | enough cells to score | inactive
Ghrl | 1 | -1.3 | 1.06 | 1.23 | enough cells to score | inactive
Ptprf | 1 | 2.04 | 1.81 | 1.8 | enough cells to score | inactive
Nono | 1 | -0.07 | 1.71 | 1.51 | enough cells to score | inactive
Kank4 | 1 | -1.8 | 1.19 | 1.36 | enough cells to score | active
Elavl4 | 1 | -0.95 | 1.32 | 1.26 | enough cells to score | inactive
Klhdc2 | 1 | -1.4 | 1.31 | 1.28 | enough cells to score | inactive
Trmt2a | 1 | 1.28 | 1.76 | 1.58 | enough cells to score | inactive
Surf1 | 1 | -0.44 | 1.51 | 1.46 | enough cells to score | inactive
Or2f1b | 1 | – | 1.13 | 1.26 | fewer than 50 cells per well; well left out of scoring | inactive
